Laboratory results from the supplement of paper PMC10849652.
This is one part of the list. Residues, ends and D or L forms follow the SMILES beside them. *: point of attachment. Cbz = O=C(OCc1ccccc1)*

Amino acid sequences for entries named in this document (tags omitted). A change or cut given only in a name is not applied to a line headed by its entry.
UniProt Q9H3H5: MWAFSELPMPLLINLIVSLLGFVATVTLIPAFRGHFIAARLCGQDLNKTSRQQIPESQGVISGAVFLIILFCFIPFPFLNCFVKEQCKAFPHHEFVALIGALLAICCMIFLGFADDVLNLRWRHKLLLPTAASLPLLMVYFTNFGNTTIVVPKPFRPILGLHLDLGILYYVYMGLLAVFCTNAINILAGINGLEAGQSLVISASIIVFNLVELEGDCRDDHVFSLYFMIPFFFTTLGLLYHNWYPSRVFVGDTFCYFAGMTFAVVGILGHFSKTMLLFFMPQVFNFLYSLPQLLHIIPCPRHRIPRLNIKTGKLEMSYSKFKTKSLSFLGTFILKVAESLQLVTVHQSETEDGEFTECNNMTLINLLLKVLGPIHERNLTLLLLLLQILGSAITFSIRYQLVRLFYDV
UniProt P30084: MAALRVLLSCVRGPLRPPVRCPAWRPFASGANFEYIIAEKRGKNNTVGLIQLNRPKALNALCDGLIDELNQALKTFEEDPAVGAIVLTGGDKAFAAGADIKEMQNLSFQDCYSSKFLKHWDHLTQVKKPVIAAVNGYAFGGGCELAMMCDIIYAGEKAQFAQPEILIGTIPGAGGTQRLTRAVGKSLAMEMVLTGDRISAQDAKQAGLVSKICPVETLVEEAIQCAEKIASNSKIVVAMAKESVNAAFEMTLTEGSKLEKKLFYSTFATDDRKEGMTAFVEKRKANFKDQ
UniProt Q8WXX5: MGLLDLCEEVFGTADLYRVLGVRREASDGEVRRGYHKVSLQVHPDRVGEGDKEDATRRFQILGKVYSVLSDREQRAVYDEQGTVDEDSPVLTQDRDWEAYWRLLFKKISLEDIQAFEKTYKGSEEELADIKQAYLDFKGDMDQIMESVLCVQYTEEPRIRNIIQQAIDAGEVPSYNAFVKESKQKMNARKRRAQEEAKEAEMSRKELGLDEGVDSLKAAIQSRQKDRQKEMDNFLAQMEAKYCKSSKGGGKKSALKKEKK
UniProt P63167, whole entry, looked up: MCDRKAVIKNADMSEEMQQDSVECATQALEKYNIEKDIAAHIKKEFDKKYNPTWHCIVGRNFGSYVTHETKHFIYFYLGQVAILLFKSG
UniProt Q9NP97, whole entry, looked up: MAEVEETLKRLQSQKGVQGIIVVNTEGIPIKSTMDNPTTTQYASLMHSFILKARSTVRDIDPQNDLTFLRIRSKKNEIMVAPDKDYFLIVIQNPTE
UniProt O75937: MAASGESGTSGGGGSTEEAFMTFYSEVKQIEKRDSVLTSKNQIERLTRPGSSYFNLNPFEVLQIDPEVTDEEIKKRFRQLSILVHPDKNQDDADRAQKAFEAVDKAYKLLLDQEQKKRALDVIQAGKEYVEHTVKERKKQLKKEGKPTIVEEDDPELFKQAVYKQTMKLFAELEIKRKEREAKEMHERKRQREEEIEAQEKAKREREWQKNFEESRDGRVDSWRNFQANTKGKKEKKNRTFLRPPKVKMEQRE
UniProt Q96FJ2, whole entry, looked up: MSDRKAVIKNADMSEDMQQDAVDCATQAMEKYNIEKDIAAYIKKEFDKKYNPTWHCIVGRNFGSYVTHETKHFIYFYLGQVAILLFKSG
UniProt Q9BQ95: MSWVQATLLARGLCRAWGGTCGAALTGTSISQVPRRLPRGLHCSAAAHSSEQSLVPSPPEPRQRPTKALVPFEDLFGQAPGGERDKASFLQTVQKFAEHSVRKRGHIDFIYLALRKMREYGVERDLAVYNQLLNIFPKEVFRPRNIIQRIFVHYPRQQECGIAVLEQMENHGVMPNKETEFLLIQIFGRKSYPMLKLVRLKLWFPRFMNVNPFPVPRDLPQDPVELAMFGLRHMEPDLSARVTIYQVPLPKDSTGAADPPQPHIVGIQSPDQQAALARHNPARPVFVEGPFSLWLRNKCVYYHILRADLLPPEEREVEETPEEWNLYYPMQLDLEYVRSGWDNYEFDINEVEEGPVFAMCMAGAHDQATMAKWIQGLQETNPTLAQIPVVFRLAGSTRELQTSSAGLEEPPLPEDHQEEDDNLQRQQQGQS
UniProt O00429, whole entry, looked up: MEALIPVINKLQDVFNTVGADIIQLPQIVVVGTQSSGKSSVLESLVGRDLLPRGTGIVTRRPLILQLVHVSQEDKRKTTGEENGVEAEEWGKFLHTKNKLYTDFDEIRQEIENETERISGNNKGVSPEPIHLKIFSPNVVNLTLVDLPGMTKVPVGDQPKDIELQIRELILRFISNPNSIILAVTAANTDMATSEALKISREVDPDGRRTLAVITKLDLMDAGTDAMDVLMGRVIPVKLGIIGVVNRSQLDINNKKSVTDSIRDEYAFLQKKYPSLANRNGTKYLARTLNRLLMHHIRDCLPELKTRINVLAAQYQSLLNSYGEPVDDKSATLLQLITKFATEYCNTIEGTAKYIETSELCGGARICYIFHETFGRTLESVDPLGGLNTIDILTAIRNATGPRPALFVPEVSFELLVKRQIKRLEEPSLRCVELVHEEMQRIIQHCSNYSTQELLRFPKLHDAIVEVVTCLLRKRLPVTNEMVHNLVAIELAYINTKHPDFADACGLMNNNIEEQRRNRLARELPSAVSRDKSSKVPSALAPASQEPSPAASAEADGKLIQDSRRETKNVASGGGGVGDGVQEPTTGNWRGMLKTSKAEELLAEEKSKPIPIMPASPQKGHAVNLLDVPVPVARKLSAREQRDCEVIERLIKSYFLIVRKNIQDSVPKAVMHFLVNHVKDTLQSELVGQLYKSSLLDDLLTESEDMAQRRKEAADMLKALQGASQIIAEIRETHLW
UniProt P51452: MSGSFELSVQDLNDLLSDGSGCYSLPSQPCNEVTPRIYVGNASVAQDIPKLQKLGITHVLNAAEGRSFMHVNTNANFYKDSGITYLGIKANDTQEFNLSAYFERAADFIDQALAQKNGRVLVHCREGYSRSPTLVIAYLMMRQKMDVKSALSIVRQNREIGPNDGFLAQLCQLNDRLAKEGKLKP
UniProt Q9H3Z4: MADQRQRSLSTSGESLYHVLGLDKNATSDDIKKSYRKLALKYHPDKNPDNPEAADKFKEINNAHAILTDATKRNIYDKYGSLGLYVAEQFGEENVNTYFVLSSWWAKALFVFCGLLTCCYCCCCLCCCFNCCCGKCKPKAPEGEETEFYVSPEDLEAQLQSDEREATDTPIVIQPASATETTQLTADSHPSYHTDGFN
UniProt Q8TEA8: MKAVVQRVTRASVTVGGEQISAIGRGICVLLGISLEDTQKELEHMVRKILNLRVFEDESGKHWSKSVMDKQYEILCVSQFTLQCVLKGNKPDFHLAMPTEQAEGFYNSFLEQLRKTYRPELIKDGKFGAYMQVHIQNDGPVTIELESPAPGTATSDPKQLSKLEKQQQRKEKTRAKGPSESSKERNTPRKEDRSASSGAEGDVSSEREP
UniProt O75061: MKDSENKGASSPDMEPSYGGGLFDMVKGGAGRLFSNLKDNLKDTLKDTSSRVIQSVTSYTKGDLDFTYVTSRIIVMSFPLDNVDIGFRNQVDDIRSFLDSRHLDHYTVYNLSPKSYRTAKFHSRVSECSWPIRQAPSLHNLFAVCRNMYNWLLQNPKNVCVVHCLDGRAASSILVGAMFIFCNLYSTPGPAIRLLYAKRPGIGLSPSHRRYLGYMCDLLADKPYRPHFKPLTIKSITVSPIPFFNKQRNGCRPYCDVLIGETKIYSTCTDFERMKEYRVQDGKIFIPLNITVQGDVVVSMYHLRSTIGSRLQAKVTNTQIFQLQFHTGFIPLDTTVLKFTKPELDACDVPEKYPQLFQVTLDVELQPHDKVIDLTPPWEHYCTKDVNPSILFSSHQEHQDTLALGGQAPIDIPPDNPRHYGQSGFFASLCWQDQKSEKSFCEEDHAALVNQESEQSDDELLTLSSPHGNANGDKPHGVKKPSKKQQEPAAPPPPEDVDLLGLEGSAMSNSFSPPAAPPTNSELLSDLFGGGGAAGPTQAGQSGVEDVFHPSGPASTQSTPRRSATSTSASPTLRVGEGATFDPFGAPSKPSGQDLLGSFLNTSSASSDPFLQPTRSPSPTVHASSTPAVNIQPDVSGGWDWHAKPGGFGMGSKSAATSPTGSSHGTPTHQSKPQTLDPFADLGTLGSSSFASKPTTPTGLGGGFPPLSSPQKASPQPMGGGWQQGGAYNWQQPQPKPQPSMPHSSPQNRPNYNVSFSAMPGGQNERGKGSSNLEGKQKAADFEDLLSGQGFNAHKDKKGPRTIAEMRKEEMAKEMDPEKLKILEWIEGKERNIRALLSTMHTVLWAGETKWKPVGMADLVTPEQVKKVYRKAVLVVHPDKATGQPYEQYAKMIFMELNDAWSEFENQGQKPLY
UniProt Q86TI2: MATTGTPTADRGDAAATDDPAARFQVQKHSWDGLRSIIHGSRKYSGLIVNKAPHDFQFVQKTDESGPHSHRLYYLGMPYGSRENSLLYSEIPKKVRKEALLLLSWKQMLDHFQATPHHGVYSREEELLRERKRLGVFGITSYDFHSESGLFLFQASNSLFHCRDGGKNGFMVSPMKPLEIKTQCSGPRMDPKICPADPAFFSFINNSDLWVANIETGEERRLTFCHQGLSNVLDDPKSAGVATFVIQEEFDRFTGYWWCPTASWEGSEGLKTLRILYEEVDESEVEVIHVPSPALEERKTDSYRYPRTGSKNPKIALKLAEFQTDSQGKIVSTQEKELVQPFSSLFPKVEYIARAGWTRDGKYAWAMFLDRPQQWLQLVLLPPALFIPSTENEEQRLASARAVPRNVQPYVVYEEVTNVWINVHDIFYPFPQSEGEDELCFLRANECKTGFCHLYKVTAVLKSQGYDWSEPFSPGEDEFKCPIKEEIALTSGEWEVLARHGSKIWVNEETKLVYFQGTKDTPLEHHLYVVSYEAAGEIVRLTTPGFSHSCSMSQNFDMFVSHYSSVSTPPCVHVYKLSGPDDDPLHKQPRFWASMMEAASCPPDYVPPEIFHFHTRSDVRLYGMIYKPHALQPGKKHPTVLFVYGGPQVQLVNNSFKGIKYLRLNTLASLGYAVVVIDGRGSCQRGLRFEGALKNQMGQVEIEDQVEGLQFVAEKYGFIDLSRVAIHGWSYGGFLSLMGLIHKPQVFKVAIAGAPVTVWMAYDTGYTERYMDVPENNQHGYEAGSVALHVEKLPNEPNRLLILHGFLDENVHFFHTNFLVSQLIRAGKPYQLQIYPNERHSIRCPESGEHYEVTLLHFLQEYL
UniProt Q9NY33: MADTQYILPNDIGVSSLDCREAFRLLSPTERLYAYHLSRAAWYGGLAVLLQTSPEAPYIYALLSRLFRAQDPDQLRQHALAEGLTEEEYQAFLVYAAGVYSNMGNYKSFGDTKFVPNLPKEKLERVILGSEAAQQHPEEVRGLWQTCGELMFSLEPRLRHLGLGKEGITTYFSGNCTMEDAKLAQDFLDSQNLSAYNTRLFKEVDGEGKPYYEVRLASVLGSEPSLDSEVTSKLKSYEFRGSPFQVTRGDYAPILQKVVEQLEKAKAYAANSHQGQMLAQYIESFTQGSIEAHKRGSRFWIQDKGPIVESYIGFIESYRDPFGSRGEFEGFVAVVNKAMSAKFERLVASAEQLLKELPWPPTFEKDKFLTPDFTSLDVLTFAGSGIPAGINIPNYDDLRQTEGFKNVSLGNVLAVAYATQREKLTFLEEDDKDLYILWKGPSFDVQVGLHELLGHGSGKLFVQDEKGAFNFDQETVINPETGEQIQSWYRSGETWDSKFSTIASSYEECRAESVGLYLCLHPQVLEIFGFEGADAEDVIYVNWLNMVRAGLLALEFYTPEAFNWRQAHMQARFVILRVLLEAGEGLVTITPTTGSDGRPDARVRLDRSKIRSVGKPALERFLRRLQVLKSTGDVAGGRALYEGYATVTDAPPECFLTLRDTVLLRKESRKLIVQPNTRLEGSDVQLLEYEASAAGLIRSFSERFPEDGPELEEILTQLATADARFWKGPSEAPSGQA

Tests used:
Experiment in all cases: log2 fold change, soluble protein after heating vs DMSO (PISA); higher = thermal stabilisation; K562 cells, 10 uM, 30 min; active = over 0.2 and 3.5 SD of the protein, either way, in both replicates (recomputed)
[1] = compound: C1COCCN1CCN2C3=CC=CC=C3N=C2NC(=O)C4=CC(=CC=C4)[N+](=O)[O-] [IRAK-1-4 Inhibitor I]
Method in brief: (§1)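 Quantification of soluble protein used TMTpro 16plex LC-MS/MS, with channel sums equalised. Samples were the supernatant after 21,000xg for 90 min of pooled aliquots from K562 cells (2×10^6 cells/mL) treated with 10 μM compound for 30 min, heated for 3 min over 48°C-58°C, and extracted in PBS with 0.5% NP-40 at 4°C. Values, from duplicates, describe thermal stability against control samples on a log2 fold-change scale.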

[2] = compound: C=CC(=O)N1CCC[C@@H](n2nc(-c3ccc(Oc4ccccc4)cc3)c3c(N)ncnc32)C1 [ibrutinib]
Method in brief: as §1

[3] = compound: CC(=O)c1cnc2ccc(-c3cc(Cl)c(O)c(Cl)c3)nc2c1N[C@H]1CC[C@H](CN(C)C)CC1
Method in brief: as §1

[4] = compound: CC(C)(C)Cn1c(N)nc2ccc(-c3[nH]c(C(C)(C)C)nc3-c3ccc(F)cc3)nc21 [ralimetinib]
Method in brief: as §1

[5] = compound: CC(C)(O)CC(=O)NCCn1ccc2ncnc(Nc3ccc(Oc4cccc(C(F)(F)F)c4)c(Cl)c3)c21
Method in brief: as §1

[6] = compound: CC(C)C1=C2N=C(C=C(N2N=C1)NCC3=CC=CC=C3)NCCCCCCN
Method in brief: as §1

[7] = compound: CC(C)C[C@@H](C=O)NC(=O)[C@H](CC(C)C)NC(=O)[C@H](CC(C)C)NC(=O)OCc1ccccc1
Method in brief: as §1

[8] = compound: CC(C)N(C[C@H]1O[C@@H](n2cnc3c(N)ncnc32)[C@H](O)[C@@H]1O)[C@H]1C[C@@H](CCc2nc3cc(C(C)(C)C)ccc3[nH]2)C1 [pinometostat]
Method in brief: as §1

[9] = compound: CC1=C(C(CC(=O)N1)C2=CC=C(C=C2)C(F)(F)F)C(=O)NC3=C(C=C4C(=C3)C=NN4)F
Method in brief: as §1

[10] = compound: CC1=C(C2=C(C=C1)C(=O)C3=CC=CC=C3N2CCCN)C
Method in brief: as §1

[11] = compound: CC1=C(C=C(C=C1)NC(=O)C2=CC(=CC=C2)C(C)(C)C#N)NC3=CC4=C(C=C3)N=CN(C4=O)C
Method in brief: as §1

[12] = compound: CC1=C(C=C(C=C1)NC(=O)C2=CC(=CC=C2)N(C)C)NC(=O)C3=CC=C(C=C3)O
Method in brief: as §1

[13] = compound: CC1=CC=C(C=C1)SC2=C3C=C(SC3=CN=C2)C(=O)N
Method in brief: as §1

[14] = compound: CC1=NC(=CC=C1)C2=C(N=C(N2)C(C)(C)C)C3=CC4=NC=CN=C4C=C3
Method in brief: as §1

[15] = compound: CCCCN(Cc1ccc(C(=O)NO)cc1)C(=O)Nc1ccccc1 [Nexturastat A]
Method in brief: as §1

[16] = compound: CCCS(=O)(=O)Nc1ccc(F)c(C(=O)c2c[nH]c3ncc(-c4ccc(Cl)cc4)cc23)c1F [vemurafenib]
Method in brief: as §1

[17] = compound: CCCS(=O)(=O)Nc1ccc(F)c(C(=O)c2c[nH]c3ncc(Cl)cc23)c1F
Method in brief: as §1

[18] = compound: CCCc1cc(C)[nH]c(=O)c1CNC(=O)c1cc(-c2ccnc(N3CCN(C)CC3)c2)cc2c1cnn2C(C)C
Method in brief: as §1

[19] = compound: CCN(CC)Cc1ccc2cc(COC(=O)Nc3ccc(C(=O)NO)cc3)ccc2c1 [givinostat]
Method in brief: as §1

[20] = compound: CCN(CCCOc1ccc2c(Nc3cc(CC(=O)Nc4cccc(F)c4)[nH]n3)ncnc2c1)CCOP(=O)(O)O [barasertib]
Method in brief: as §1

Measured: log2 fold change

DPAGT1 (UniProt Q9H3H5)
inactive: [1] 0 | [2] -0.061 | [3] 0.061 | [4] -0.035 | [5] -0.085 | [6] 0.056 | [7] -0.104 | [8] -0.105 | [9] 0 | [10] 0.078 | [11] 0.083 | [12] 0.01 | [13] 0.076 | [14] 0.065 | [15] -0.003 | [16] 0.153 | [17] -0.049 | [18] -0.034 | [19] -0.035 | [20] 0.008

ECHS1 (UniProt P30084)
inactive: [1] 0.014 | [2] -0.027 | [3] 0.013 | [4] -0.003 | [5] 0.005 | [6] 0.06 | [7] -0.015 | [8] -0.045 | [9] -0.067 | [10] 0.034 | [11] -0.016 | [12] -0.018 | [13] 0.01 | [14] 0.053 | [15] -0.073 | [16] 0.089 | [17] 0.077 | [18] 0.024 | [19] -0.027 | [20] -0.002

DNAJC9 (UniProt Q8WXX5)
inactive: [1] 0.009 | [2] 0.008 | [3] -0.017 | [4] -0.035 | [5] 0 | [6] -0.032 | [7] 0.022 | [8] -0.051 | [9] 0.035 | [10] 0.007 | [11] -0.01 | [12] 0.009 | [13] 0.003 | [14] 0.006 | [15] -0.021 | [16] 0.001 | [17] -0.002 | [18] 0.018 | [19] 0.017 | [20] -0.014

DYNC1H1 (UniProt Q14204)
inactive: [1] -0.015 | [2] -0.024 | [3] 0.009 | [4] 0.01 | [5] -0.052 | [6] -0.043 | [7] 0 | [8] 0.015 | [9] -0.005 | [10] 0.024 | [11] 0.015 | [12] -0.014 | [13] -0.001 | [14] 0 | [15] 0.005 | [16] -0.003 | [17] 0.017 | [18] 0.004 | [19] 0.016 | [20] 0

DYNLL1 (UniProt P63167)
inactive: [1] 0.024 | [2] -0.005 | [3] -0.043 | [4] -0.083 | [5] 0.004 | [6] 0.031 | [7] -0.051 | [8] -0.018 | [9] -0.094 | [10] 0.072 | [11] 0.008 | [12] -0.112 | [13] 0.013 | [14] 0.089 | [15] -0.012 | [16] 0.021 | [17] 0.008 | [18] -0.15 | [19] -0.009 | [20] 0.044

DYNLRB1 (UniProt Q9NP97)
inactive: [1] 0.003 | [2] -0.001 | [3] 0.023 | [4] -0.065 | [5] -0.153 | [6] 0.057 | [7] -0.008 | [8] -0.046 | [9] 0.013 | [10] 0.081 | [11] -0.027 | [12] -0.03 | [13] -0.027 | [14] -0.006 | [15] -0.044 | [16] -0.063 | [17] -0.036 | [18] -0.004 | [19] -0.053 | [20] 0.045

DNAJC8 (UniProt O75937)
inactive: [1] -0.01 | [2] -0.03 | [3] -0.031 | [4] -0.025 | [5] -0.012 | [6] 0.005 | [7] 0.006 | [8] -0.028 | [9] 0.001 | [10] 0.006 | [11] 0 | [12] -0.005 | [13] 0.004 | [14] 0.084 | [15] -0.133 | [16] 0.035 | [17] 0.004 | [18] -0.022 | [19] -0.043 | [20] 0.04

DYNLL2 (UniProt Q96FJ2)
inactive: [1] -0.017 | [2] 0.034 | [3] -0.003 | [4] -0.017 | [5] -0.027 | [6] -0.007 | [7] -0.028 | [8] -0.075 | [9] -0.116 | [10] 0.184 | [11] -0.066 | [12] -0.098 | [13] 0.017 | [14] 0.041 | [15] 0.051 | [16] 0.008 | [17] 0.001 | [18] 0.035 | [19] -0.004 | [20] 0.048

ECSIT (UniProt Q9BQ95)
inactive: [1] 0.067 | [2] 0.061 | [3] 0.001 | [4] -0.019 | [5] 0.05 | [6] 0.012 | [7] 0.018 | [8] -0.029 | [9] 0 | [10] 0.007 | [11] -0.029 | [12] -0.01 | [13] -0.058 | [14] 0.021 | [15] -0.023 | [16] 0.01 | [17] -0.047 | [18] -0.055 | [19] -0.011 | [20] -0.003

DNM1L isoform 6 (UniProt O00429)
inactive: [1] 0.042 | [2] -0.017 | [3] -0.001 | [4] -0.037 | [5] -0.028 | [6] -0.034 | [7] -0.01 | [8] -0.001 | [9] 0 | [10] 0.092 | [11] -0.022 | [12] 0.005 | [13] 0.041 | [14] 0.015 | [15] -0.045 | [16] -0.022 | [17] 0.043 | [18] -0.018 | [19] 0.023 | [20] 0.029

DUSP3 (UniProt P51452)
inactive: [1] 0.021 | [2] -0.088 | [3] -0.057 | [4] -0.014 | [5] 0.029 | [6] 0.084 | [7] 0.022 | [8] 0.056 | [9] -0.109 | [10] 0.056 | [11] 0.087 | [12] -0.023 | [13] -0.027 | [14] 0.007 | [15] -0.053 | [16] 0.042 | [17] 0.022 | [18] -0.022 | [19] 0.037 | [20] 0.098

DNAJC5 (UniProt Q9H3Z4)
inactive: [1] -0.002 | [2] 0.097 | [3] -0.098 | [4] -0.082 | [5] 0.069 | [6] 0.137 | [7] 0.022 | [8] -0.024 | [9] -0.047 | [10] -0.062 | [11] -0.066 | [12] 0.017 | [13] -0.089 | [14] -0.027 | [15] 0.013 | [16] 0.008 | [17] -0.101 | [18] -0.075 | [19] -0.026 | [20] 0.021

DTD1 (UniProt Q8TEA8)
inactive: [1] -0.012 | [2] 0.019 | [3] -0.017 | [4] -0.073 | [5] -0.001 | [6] 0.124 | [7] 0 | [8] -0.024 | [9] 0.021 | [10] 0.013 | [11] -0.008 | [12] 0.044 | [13] 0.008 | [14] 0.03 | [15] -0.138 | [16] 0.011 | [17] 0.004 | [18] -0.009 | [19] -0.038 | [20] 0.011

DNAJC6 isoform 2 (UniProt O75061)
inactive: [1] 0.03 | [2] -0.076 | [3] -0.139 | [4] -0.011 | [5] 0.028 | [6] 0.049 | [7] 0.058 | [8] -0.017 | [9] 0.042 | [10] 0.029 | [11] 0.021 | [12] 0.004 | [13] 0 | [14] 0.017 | [15] -0.028 | [16] 0.026 | [17] 0.079 | [18] -0.021 | [19] -0.021 | [20] 0.167

DPP9 isoform 2 (UniProt Q86TI2)
inactive: [1] 0.02 | [2] 0.002 | [3] -0.052 | [4] -0.019 | [5] -0.001 | [6] -0.02 | [7] 0.019 | [8] 0.047 | [9] -0.012 | [10] 0.058 | [11] -0.037 | [12] -0.032 | [13] -0.003 | [14] 0.005 | [15] 0.011 | [16] 0.015 | [17] 0.001 | [18] -0.014 | [19] 0.014 | [20] 0.009

Quoted from the entries so far (2 entries):
DNAJC5 (UniProt Q9H3Z4)
inactive: [1] -0.002 | [2] 0.097 | [3] -0.098 | [4] -0.082 | [5] 0.069 | [6] 0.137 | [7] 0.022 | [8] -0.024 | [9] -0.047 | [10] -0.062 | [11] -0.066 | [12] 0.017 | [13] -0.089 | [14] -0.027 | [15] 0.013 | [16] 0.008 | [17] -0.101 | [18] -0.075 | [19] -0.026 | [20] 0.021

DTD1 (UniProt Q8TEA8)
inactive: [1] -0.012 | [2] 0.019 | [3] -0.017 | [4] -0.073 | [5] -0.001 | [6] 0.124 | [7] 0 | [8] -0.024 | [9] 0.021 | [10] 0.013 | [11] -0.008 | [12] 0.044 | [13] 0.008 | [14] 0.03 | [15] -0.138 | [16] 0.011 | [17] 0.004 | [18] -0.009 | [19] -0.038 | [20] 0.011

Remaining list, next part:

DPP3 (UniProt Q9NY33)
inactive: [1] 0.039 | [2] -0.014 | [3] -0.035 | [4] -0.008 | [5] -0.042 | [6] -0.145 | [7] -0.039 | [8] -0.024 | [9] -0.005 | [10] 0.066 | [11] -0.005 | [12] 0 | [13] -0.014 | [14] 0.005 | [15] -0.052 | [16] -0.002 | [17] 0.02 | [18] -0.047 | [19] 0.025 | [20] 0.043
